{
  "source": "patent US20070003636A1",
  "about": "“Statins (HMG-COA reductase inhibitors) as a novel type of immunomodulator, immunosuppressor and anti-inflammatory agent” (priority 2003, published 2007)",
  "test": "Mouse skin graft, internal controls (weight, blood cholesterol)",
  "assay_type": "in vivo",
  "data": [
    {"smiles": "CC(C)c1c(C(=O)Nc2ccccc2)c(-c2ccccc2)c(-c2ccc(F)cc2)n1CC[C@@H](O)C[C@@H](O)CC(=O)O", "note": "[Atorvastatin]", "values": [
      {"measurement": "blood cholesterol levels (total cholesterol, triglycerides)", "setting": "high statin dose 100 mg/kg/day in food", "value": "slight decrease"},
      {"measurement": "blood cholesterol levels (total cholesterol, triglycerides)", "setting": "low statin dose 1 mg/kg/day in food, vs control", "value": "did not change"}
    ]}
  ]
}
